In patent US9730448B2, “Tetrazolinone compound and use of same” (Sumitomo Chemical Company, Limited, priority 2013, dated 2017):
Some results were stated once for a whole list of compounds, not compound by compound. For at least one compound, name, drawing or mass did not settle the structure.

Columns and labels:
Type in all cases: in vivo
[1] = test system: barley net blotch fungus (Pyrenophora teres); assay: Test Example 1: control of barley net blotch, foliar spray on barley; settings: 500 ppm water dilution sprayed on barley (MIKAMO GOLDEN); inoculated after 2 days; investigated after 3 days high humidity + 7 days greenhouse
[2] = test system: rice blast fungus (Magnaporthe grisea); settings: 500 ppm water dilution sprayed on rice (NIHONBARE); contact with infected rice seedling for 6 days under high humidity
[3] = test system: cucumber powdery mildew fungus (Sphaerotheca fuliginea, a QoI-resistant strain, cytochrome b position 143 glycine to alanine); assay: Test Example 6 and Comparative Test Example: control of cucumber powdery mildew (QoI-resistant strain), foliar spray on cucumber; settings: 500 ppm water dilution sprayed on cucumber (SAGAMI HANJIRO); inoculated after air-drying; investigated after 8 days in greenhouse
[4] = test system: wheat rust fungus (Puccinia recondita); assay: Test Example 2: control of wheat rust, foliar spray on wheat; settings: 500 ppm water dilution sprayed on wheat (SHIROGANE); inoculated after 5 days; investigated after 1 day dark high humidity + 8 days
[5] = test system: cotton aphid (Aphis gossypii); assay: Test Example 11: control of cotton aphid on cucumber, spray; settings: 500 ppm, 20 mL sprayed on cucumber (SAGAMI HANJIRO FUSHINARI) carrying 30 cotton aphids; surviving insects counted after 6 days

## Cc1cc(-c2ccoc2)ccc1OCc1c(C)cccc1-n1nnn(C)c1=O [compound 2]
[1]
  area of lesion spots on the treated plant relative to that on an untreated plant: ≤ 30%

## Cc1cc(-c2sccc2C)ccc1OCc1c(C)cccc1-n1nnn(C)c1=O [compound 3]
[1]
  area of lesion spots on the treated plant relative to that on an untreated plant: ≤ 30%
[2]
  lesion area on the treated plant with respect to the lesion area on the non-treated plant: ≤ 30%
[3]
  area of lesion spots on the treated plant relative to that on an untreated plant: ≤ 30%
[4]
  area of lesion spots on the treated plant relative to that on an untreated plant: ≤ 30%

## Cc1cnc(-c2ccc(OCc3c(C)cccc3-n3nnn(C)c3=O)c(C)c2)s1 [compound 4]
[1]
  area of lesion spots on the treated plant relative to that on an untreated plant: ≤ 30%
[3]
  area of lesion spots on the treated plant relative to that on an untreated plant: ≤ 30%

## Cc1cc(-c2nc(Br)ns2)ccc1OCc1c(C)cccc1-n1nnn(C)c1=O [compound 5]
[1]
  area of lesion spots on the treated plant relative to that on an untreated plant: ≤ 30%
[3]
  area of lesion spots on the treated plant relative to that on an untreated plant: ≤ 30%

## Cc1ccc(-c2ccc(OCc3c(C)cccc3-n3nnn(C)c3=O)c(C)c2)s1 [compound 6]
[1]
  area of lesion spots on the treated plant relative to that on an untreated plant: ≤ 30%
[3]
  area of lesion spots on the treated plant relative to that on an untreated plant: ≤ 30%

## Cc1cc(-c2sccc2C#N)ccc1OCc1c(C)cccc1-n1nnn(C)c1=O [compound 7]
[1]
  area of lesion spots on the treated plant relative to that on an untreated plant: ≤ 30%
[3]
  area of lesion spots on the treated plant relative to that on an untreated plant: ≤ 30%

## Cc1cc(-c2ccc(Cl)s2)ccc1OCc1c(C)cccc1-n1nnn(C)c1=O [compound 8]
[1]
  area of lesion spots on the treated plant relative to that on an untreated plant: ≤ 30%
[3]
  area of lesion spots on the treated plant relative to that on an untreated plant: ≤ 30%

## Cc1nc(-c2ccc(OCc3c(C)cccc3-n3nnn(C)c3=O)c(C)c2)cs1 [compound 9]
[1]
  area of lesion spots on the treated plant relative to that on an untreated plant: ≤ 30%
[3]
  area of lesion spots on the treated plant relative to that on an untreated plant: ≤ 30%

## Cc1cc(-c2ccco2)ccc1OCc1c(C)cccc1-n1nnn(C)c1=O [compound 11]
[1]
  area of lesion spots on the treated plant relative to that on an untreated plant: ≤ 30%
[3]
  area of lesion spots on the treated plant relative to that on an untreated plant: ≤ 30%
[5]
  control value: ≥ 90%

## Cc1csc(-c2ccc(OCc3c(C)cccc3-n3nnn(C)c3=O)c(C)c2)c1 [compound 12]
[3]
  area of lesion spots on the treated plant relative to that on an untreated plant: ≤ 30%

## Cc1cc(-c2ccsc2)ccc1OCc1c(C)cccc1-n1nnn(C)c1=O [compound 13]
[1]
  area of lesion spots on the treated plant relative to that on an untreated plant: ≤ 30%
[3]
  area of lesion spots on the treated plant relative to that on an untreated plant: ≤ 30%

## Cc1cc(-n2nccn2)ccc1OCc1c(C)cccc1-n1nnn(C)c1=O [compound 15]
[1]
  area of lesion spots on the treated plant relative to that on an untreated plant: ≤ 30%
[3]
  area of lesion spots on the treated plant relative to that on an untreated plant: ≤ 30%

## Cc1cc(-n2cncn2)ccc1OCc1c(C)cccc1-n1nnn(C)c1=O [compound 17]
[1]
  area of lesion spots on the treated plant relative to that on an untreated plant: ≤ 30%
[3]
  area of lesion spots on the treated plant relative to that on an untreated plant: ≤ 30%

## Cc1cc(-n2ccnc2)ccc1OCc1c(C)cccc1-n1nnn(C)c1=O [compound 18]
[1]
  area of lesion spots on the treated plant relative to that on an untreated plant: ≤ 30%

## Cc1cc(C2=NCCO2)ccc1OCc1c(C)cccc1-n1nnn(C)c1=O [compound 23]
[1]
  area of lesion spots on the treated plant relative to that on an untreated plant: ≤ 30%
[3]
  area of lesion spots on the treated plant relative to that on an untreated plant: ≤ 30%

## Cc1cc(C2=NCCS2)ccc1OCc1c(C)cccc1-n1nnn(C)c1=O [compound 24]
[1]
  area of lesion spots on the treated plant relative to that on an untreated plant: ≤ 30%
[3]
  area of lesion spots on the treated plant relative to that on an untreated plant: ≤ 30%

## Cc1cc(-c2nc(C)c(C)s2)ccc1OCc1c(C)cccc1-n1nnn(C)c1=O [compound 25]
[1]
  area of lesion spots on the treated plant relative to that on an untreated plant: ≤ 30%
[2]
  lesion area on the treated plant with respect to the lesion area on the non-treated plant: ≤ 30%
[3]
  area of lesion spots on the treated plant relative to that on an untreated plant: ≤ 30%

## Cc1cc(-c2scnc2C)ccc1OCc1c(C)cccc1-n1nnn(C)c1=O [compound 26]
[1]
  area of lesion spots on the treated plant relative to that on an untreated plant: ≤ 30%
[3]
  area of lesion spots on the treated plant relative to that on an untreated plant: ≤ 30%

## Cc1cc(-c2nccs2)ccc1OCc1c(C)cccc1-n1nnn(C)c1=O [compound 27]
[1]
  area of lesion spots on the treated plant relative to that on an untreated plant: ≤ 30%
[2]
  lesion area on the treated plant with respect to the lesion area on the non-treated plant: ≤ 30%
[3]
  area of lesion spots on the treated plant relative to that on an untreated plant: ≤ 30%

## Cc1nnc(-c2ccc(OCc3c(C)cccc3-n3nnn(C)c3=O)c(C)c2)o1 [compound 28]
[1]
  area of lesion spots on the treated plant relative to that on an untreated plant: ≤ 30%
[2]
  lesion area on the treated plant with respect to the lesion area on the non-treated plant: ≤ 30%

## Cc1cc(C2=NC(C)(C)CO2)ccc1OCc1c(C)cccc1-n1nnn(C)c1=O [compound 29]
[1]
  area of lesion spots on the treated plant relative to that on an untreated plant: ≤ 30%
[3]
  area of lesion spots on the treated plant relative to that on an untreated plant: ≤ 30%

## COc1cccc(-n2nnn(C)c2=O)c1COc1ccc(-c2cnc(C)s2)cc1C [compound 31]
[3]
  area of lesion spots on the treated plant relative to that on an untreated plant: ≤ 30%

## Cc1csc(-c2ccc(OCc3c(C4CC4)cccc3-n3nnn(C)c3=O)c(C)c2)n1 [compound 32]
[1]
  area of lesion spots on the treated plant relative to that on an untreated plant: ≤ 30%
[2]
  lesion area on the treated plant with respect to the lesion area on the non-treated plant: ≤ 30%
[3]
  area of lesion spots on the treated plant relative to that on an untreated plant: ≤ 30%
[4]
  area of lesion spots on the treated plant relative to that on an untreated plant: ≤ 30%

## CCc1cccc(-n2nnn(C)c2=O)c1COc1ccc(-c2nc(C)cs2)cc1C [compound 33]
[1]
  area of lesion spots on the treated plant relative to that on an untreated plant: ≤ 30%
[2]
  lesion area on the treated plant with respect to the lesion area on the non-treated plant: ≤ 30%
[3]
  area of lesion spots on the treated plant relative to that on an untreated plant: ≤ 30%

## COc1cccc(-n2nnn(C)c2=O)c1COc1ccc(-c2nc(C)cs2)cc1C [compound 35]
[1]
  area of lesion spots on the treated plant relative to that on an untreated plant: ≤ 30%
[3]
  area of lesion spots on the treated plant relative to that on an untreated plant: ≤ 30%

## Cc1nc(C)c(-c2ccc(OCc3c(C)cccc3-n3nnn(C)c3=O)c(C)c2)s1 [compound 37]
[2]
  lesion area on the treated plant with respect to the lesion area on the non-treated plant: ≤ 30%
[3]
  area of lesion spots on the treated plant relative to that on an untreated plant: ≤ 30%

## Cc1cc(-c2ncsc2C)ccc1OCc1c(C)cccc1-n1nnn(C)c1=O [compound 38]
[1]
  area of lesion spots on the treated plant relative to that on an untreated plant: ≤ 30%
[2]
  lesion area on the treated plant with respect to the lesion area on the non-treated plant: ≤ 30%
[3]
  area of lesion spots on the treated plant relative to that on an untreated plant: ≤ 30%
[4]
  area of lesion spots on the treated plant relative to that on an untreated plant: ≤ 30%

## CSc1nc(-c2ccc(OCc3c(C)cccc3-n3nnn(C)c3=O)c(C)c2)cs1 [compound 39]
[1]
  area of lesion spots on the treated plant relative to that on an untreated plant: ≤ 30%
[3]
  area of lesion spots on the treated plant relative to that on an untreated plant: ≤ 30%

## CCOc1nc(-c2ccc(OCc3c(C)cccc3-n3nnn(C)c3=O)c(C)c2)cs1 [compound 40]
[1]
  area of lesion spots on the treated plant relative to that on an untreated plant: ≤ 30%
[3]
  area of lesion spots on the treated plant relative to that on an untreated plant: ≤ 30%

## CCc1cccc(-n2nnn(C)c2=O)c1COc1ccc(-c2csc(C)n2)cc1C [compound 41]
[1]
  area of lesion spots on the treated plant relative to that on an untreated plant: ≤ 30%
[2]
  lesion area on the treated plant with respect to the lesion area on the non-treated plant: ≤ 30%
[3]
  area of lesion spots on the treated plant relative to that on an untreated plant: ≤ 30%

## Cc1cc(-c2cscn2)ccc1OCc1c(C)cccc1-n1nnn(C)c1=O [compound 42]
[1]
  area of lesion spots on the treated plant relative to that on an untreated plant: ≤ 30%
[2]
  lesion area on the treated plant with respect to the lesion area on the non-treated plant: ≤ 30%
[3]
  area of lesion spots on the treated plant relative to that on an untreated plant: ≤ 30%

## Cc1cc(-c2cncs2)ccc1OCc1c(C)cccc1-n1nnn(C)c1=O [compound 43]
[1]
  area of lesion spots on the treated plant relative to that on an untreated plant: ≤ 30%
[3]
  area of lesion spots on the treated plant relative to that on an untreated plant: ≤ 30%

## CCc1nc(-c2ccc(OCc3c(C)cccc3-n3nnn(C)c3=O)c(C)c2)cs1 [compound 44]
[1]
  area of lesion spots on the treated plant relative to that on an untreated plant: ≤ 30%
[3]
  area of lesion spots on the treated plant relative to that on an untreated plant: ≤ 30%

## Cc1cc(-c2nc(Br)cs2)ccc1OCc1c(C)cccc1-n1nnn(C)c1=O [compound 45]
[1]
  area of lesion spots on the treated plant relative to that on an untreated plant: ≤ 30%
[3]
  area of lesion spots on the treated plant relative to that on an untreated plant: ≤ 30%

## Cc1nc(-c2ccc(OCc3c(C)cccc3-n3nnn(C)c3=O)c(C)c2)c(C)s1 [compound 47]
[1]
  area of lesion spots on the treated plant relative to that on an untreated plant: ≤ 30%
[2]
  lesion area on the treated plant with respect to the lesion area on the non-treated plant: ≤ 30%
[3]
  area of lesion spots on the treated plant relative to that on an untreated plant: ≤ 30%
[4]
  area of lesion spots on the treated plant relative to that on an untreated plant: ≤ 30%

## Cc1cc(-c2ccsn2)ccc1OCc1c(C)cccc1-n1nnn(C)c1=O [compound 48]
[1]
  area of lesion spots on the treated plant relative to that on an untreated plant: ≤ 30%
[3]
  area of lesion spots on the treated plant relative to that on an untreated plant: ≤ 30%

## Cc1cc(-n2cccc2)ccc1OCc1c(C)cccc1-n1nnn(C)c1=O [compound 55]
[1]
  area of lesion spots on the treated plant relative to that on an untreated plant: ≤ 30%
[3]
  area of lesion spots on the treated plant relative to that on an untreated plant: ≤ 30%

## Cc1cc(N2CCCC2=O)ccc1OCc1c(C)cccc1-n1nnn(C)c1=O [compound 57]
[1]
  area of lesion spots on the treated plant relative to that on an untreated plant: ≤ 30%
[2]
  lesion area on the treated plant with respect to the lesion area on the non-treated plant: ≤ 30%

## Cc1cnn(-c2ccc(OCc3c(C)cccc3-n3nnn(C)c3=O)c(C)c2)n1 [compound 60]
[1]
  area of lesion spots on the treated plant relative to that on an untreated plant: ≤ 30%
[3]
  area of lesion spots on the treated plant relative to that on an untreated plant: ≤ 30%

## CCOC(=O)c1sc(C)nc1-c1ccc(OCc2c(C)cccc2-n2nnn(C)c2=O)c(C)c1 [compound 62]
[1]
  area of lesion spots on the treated plant relative to that on an untreated plant: ≤ 30%

## Cc1nc(-c2ccc(OCc3c(C)cccc3-n3nnn(C)c3=O)c(C)c2)c(C#N)s1 [compound 63]
[1]
  area of lesion spots on the treated plant relative to that on an untreated plant: ≤ 30%
[3]
  area of lesion spots on the treated plant relative to that on an untreated plant: ≤ 30%
